Measurements taken from patent publication US6890706B2, “Process for removing stain in a photographic material” (Ciba Specialty Chemicals Corporation, priority 1999, dated 2005).

Experiments:
[1] = Stain removal: CIE-L*a*b* of the white of paper developed in model processing solution with optical brightener; conditions: Kodak Edge5
[2] = as above; conditions: Fuji SFAVIII
[3] = as above; conditions: Agfa Typ10
[4] = 0.5 g/L active substance in developer
[5] = 1.0 g/L active substance in developer
[6] = 1.5 g/L active substance in developer

O=C([O-])CC(Nc1nc(Nc2ccccc2)nc(Nc2ccc(/C=C/c3ccc(Nc4nc(Nc5ccccc5)nc(NC(CC(=O)[O-])C(=O)[O-])n4)cc3S(=O)(=O)[O-])c(S(=O)(=O)[O-])c2)n1)C(=O)[O-].[Na+].[Na+].[Na+].[Na+].[Na+].[Na+] (centres unmarked) [B]
C (Chrominance) [1, 4]: 0.58 | H (Hue) [1, 4]: 240 | L* [1, 4]: 90.72 | a* [1, 4]: −0.3 | b* [1, 4]: −0.5 | C (Chrominance) [1, 5]: 0.81 | H (Hue) [1, 5]: 261 | L* [1, 5]: 90.79 | a* [1, 5]: −0.1 | b* [1, 5]: −0.8 | C (Chrominance) [1, 6]: 1.10 | H (Hue) [1, 6]: 270 | L* [1, 6]: 90.80 | a* [1, 6]: −0.1 | b* [1, 6]: −1.1 | C (Chrominance) [2, 4]: 1.27 | H (Hue) [2, 4]: 80 | L* [2, 4]: 90.11 | a* [2, 4]: 0.2 | b* [2, 4]: 1.3 | C (Chrominance) [2, 5]: 0.58 | H (Hue) [2, 5]: 60 | L* [2, 5]: 90.15 | a* [2, 5]: 0.3 | b* [2, 5]: 0.5 | C (Chrominance) [2, 6]: 0.30 | H (Hue) [2, 6]: 341 | L* [2, 6]: 90.14 | a* [2, 6]: 0.3 | b* [2, 6]: −0.1 | C (Chrominance) [3, 4]: 0.30 | H (Hue) [3, 4]: 90 | L* [3, 4]: 90.12 | a* [3, 4]: 0.0 | b* [3, 4]: 0.3 | C (Chrominance) [3, 5]: 0.78 | H (Hue) [3, 5]: 296 | L* [3, 5]: 90.13 | a* [3, 5]: 0.4 | b* [3, 5]: −0.7 | C (Chrominance) [3, 6]: 1.24 | H (Hue) [3, 6]: 285 | L* [3, 6]: 90.16 | a* [3, 6]: 0.3 | b* [3, 6]: −1.2

O=C([O-])CC(Nc1nc(Nc2ccc(/C=C/c3ccc(Nc4nc(Nc5cc(S(=O)(=O)[O-])ccc5S(=O)(=O)[O-])nc(NC(CC(=O)[O-])C(=O)[O-])n4)cc3S(=O)(=O)[O-])c(S(=O)(=O)[O-])c2)nc(Nc2cc(S(=O)(=O)[O-])ccc2S(=O)(=O)[O-])n1)C(=O)[O-].[Na+].[Na+].[Na+].[Na+].[Na+].[Na+].[Na+].[Na+].[Na+].[Na+] (centres unmarked) [C]
C (Chrominance) [1, 5]: 1.50 | H (Hue) [1, 5]: 90 | L* [1, 5]: 89.81 | a* [1, 5]: −0.1 | b* [1, 5]: 1.5 | C (Chrominance) [2, 4]: 0.76 | H (Hue) [2, 4]: 67 | L* [2, 4]: 90.21 | a* [2, 4]: 0.3 | b* [2, 4]: 0.7 | C (Chrominance) [2, 5]: 0.39 | H (Hue) [2, 5]: 310 | L* [2, 5]: 90.28 | a* [2, 5]: 0.3 | b* [2, 5]: −0.3 | C (Chrominance) [3, 4]: 0.22 | H (Hue) [3, 4]: 295 | L* [3, 4]: 90.12 | a* [3, 4]: 0.1 | b* [3, 4]: −0.2 | C (Chrominance) [3, 5]: 1.15 | H (Hue) [3, 5]: 287 | L* [3, 5]: 90.30 | a* [3, 5]: 0.4 | b* [3, 5]: −1.1

O=C([O-])CC(Nc1nc(Nc2ccccc2)nc(Nc2ccc(/C=C/c3ccc(Nc4nc(Nc5ccccc5)nc(NC(CC(=O)[O-])C(=O)[O-])n4)cc3S(=O)(=O)[O-])c(S(=O)(=O)[O-])c2)n1)C(=O)[O-].[Na+].[Na+].[Na+].[Na+].[Na+].[Na+] (centres unmarked) [Compound A]
C (Chrominance) [1, 4]: 0.71 | H (Hue) [1, 4]: 260 | L* [1, 4]: 90.73 | a* [1, 4]: −0.1 | b* [1, 4]: −0.7 | C (Chrominance) [1, 6]: 1.12 | H (Hue) [1, 6]: 259 | L* [1, 6]: 90.65 | a* [1, 6]: −0.2 | b* [1, 6]: −1.1 | C (Chrominance) [2, 4]: 0.98 | H (Hue) [2, 4]: 76 | L* [2, 4]: 90.04 | a* [2, 4]: 0.3 | b* [2, 4]: 1.0 | C (Chrominance) [2, 5]: 0.60 | H (Hue) [2, 5]: 90 | L* [2, 5]: 90.22 | a* [2, 5]: 0.3 | b* [2, 5]: 0.6 | C (Chrominance) [2, 6]: 0.39 | H (Hue) [2, 6]: 50 | L* [2, 6]: 90.24 | a* [2, 6]: 0.3 | b* [2, 6]: 0.3 | C (Chrominance) [3, 4]: 0.30 | H (Hue) [3, 4]: 341 | L* [3, 4]: 90.06 | a* [3, 4]: 0.3 | b* [3, 4]: −0.1 | C (Chrominance) [3, 5]: 0.54 | H (Hue) [3, 5]: 292 | L* [3, 5]: 90.21 | a* [3, 5]: 0.2 | b* [3, 5]: −0.5 | C (Chrominance) [3, 6]: 0.82 | H (Hue) [3, 6]: 283 | L* [3, 6]: 90.03 | a* [3, 6]: 0.2 | b* [3, 6]: −0.8
